Measurements published in PMC6261992, “Structural insight into D-xylose utilization by xylose reductase from Scheffersomyces stipitis” (Scientific Reports, 2018).
These are yes or no findings as the source states them, for the method shown. Where a sequence is shown, tags or fusion partners need not be part of it.

Target: D-xylose reductase from Scheffersomyces stipitis (Scheffersomyces stipitis) (UniProt P31867)
Assay: SEC; analytical, Superdex increase 200 10/300 GL, 40 mM Tris-HCl pH 8.0, 150 mM NaCl; 0.5 mL at 1 mg/mL; both purified

B1: D-xylose reductase from Scheffersomyces stipitis (enzyme, UniProt P31867 1-318, looked up)
chain: MPSIKLNSGYDMPAVGFGCWKVDVDTCSEQIYRAIKTGYRLFDGAEDYANEKLVGAGVKKAIDEGIVKREDLFLTSKLWNNYHHPDNVEKALNRTLSDLQVDYVDLFLIHFPVTFKFVPLEEKYPPGFYCGKGDNFDYEDVPILETWKALEKLVKAGKIRSIGVSNFPGALLLDLLRGATIKPSVLQVEHHPYLQQPRLIEFAQSRGIAVTAYSSFGPQSFVELNQGRALNTSPLFENETIKAIAAKHGKSPAQVLLRWSSQRGIAIIPKSNTVPRLLENKDVNSFDLDEQDFADIAKLDINLRFNDPWDWDKIPIFV
notes: D-xylose reductase (SsXR) of Scheffersomyces stipitis; cloned NdeI/XhoI into pProEX-HTa; The vector adds a 6x-His tag with an rTEV protease cleavage site at the N-terminus; also called SsXR; XR; source: E. coli BL21(DE3)-T1R, purified (Ni-NTA, gel filtration)
B1 was tested, and the binding was “no binding (condition: with 150 mM NaCl)”.
